# Values quoted from earlier work in patent US12084481B2 (priority 2016, dated 2024).
# Sequences of proteins named here, by UniProt entry; tags and fusion partners are left off. A change or cut given only in a name is not applied to a line headed by its entry.
# UniProt Q96D96: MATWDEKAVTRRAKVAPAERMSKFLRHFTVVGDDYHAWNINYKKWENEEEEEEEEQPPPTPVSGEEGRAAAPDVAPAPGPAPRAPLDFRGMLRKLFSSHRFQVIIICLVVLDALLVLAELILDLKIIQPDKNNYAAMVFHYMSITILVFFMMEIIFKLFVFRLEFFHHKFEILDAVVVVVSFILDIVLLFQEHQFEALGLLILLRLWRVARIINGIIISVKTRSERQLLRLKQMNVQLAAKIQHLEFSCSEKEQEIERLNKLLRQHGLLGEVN
# At least one compound was matched to its structure with a doubt left.
# Target: Hv1 channels (Homo sapiens, UniProt Q96D96)
# Details: cited from earlier work
structure (smiles),measurement,value
[Zn] [zinc],concentrations blocking Hv1 channels,0.1 to 1000 µM
